{
  "sequences": {"note": "Amino acid sequences for entries named in this document (tags omitted). A change or cut given only in a name is not applied to a line headed by its entry.", "UniProt P06756": "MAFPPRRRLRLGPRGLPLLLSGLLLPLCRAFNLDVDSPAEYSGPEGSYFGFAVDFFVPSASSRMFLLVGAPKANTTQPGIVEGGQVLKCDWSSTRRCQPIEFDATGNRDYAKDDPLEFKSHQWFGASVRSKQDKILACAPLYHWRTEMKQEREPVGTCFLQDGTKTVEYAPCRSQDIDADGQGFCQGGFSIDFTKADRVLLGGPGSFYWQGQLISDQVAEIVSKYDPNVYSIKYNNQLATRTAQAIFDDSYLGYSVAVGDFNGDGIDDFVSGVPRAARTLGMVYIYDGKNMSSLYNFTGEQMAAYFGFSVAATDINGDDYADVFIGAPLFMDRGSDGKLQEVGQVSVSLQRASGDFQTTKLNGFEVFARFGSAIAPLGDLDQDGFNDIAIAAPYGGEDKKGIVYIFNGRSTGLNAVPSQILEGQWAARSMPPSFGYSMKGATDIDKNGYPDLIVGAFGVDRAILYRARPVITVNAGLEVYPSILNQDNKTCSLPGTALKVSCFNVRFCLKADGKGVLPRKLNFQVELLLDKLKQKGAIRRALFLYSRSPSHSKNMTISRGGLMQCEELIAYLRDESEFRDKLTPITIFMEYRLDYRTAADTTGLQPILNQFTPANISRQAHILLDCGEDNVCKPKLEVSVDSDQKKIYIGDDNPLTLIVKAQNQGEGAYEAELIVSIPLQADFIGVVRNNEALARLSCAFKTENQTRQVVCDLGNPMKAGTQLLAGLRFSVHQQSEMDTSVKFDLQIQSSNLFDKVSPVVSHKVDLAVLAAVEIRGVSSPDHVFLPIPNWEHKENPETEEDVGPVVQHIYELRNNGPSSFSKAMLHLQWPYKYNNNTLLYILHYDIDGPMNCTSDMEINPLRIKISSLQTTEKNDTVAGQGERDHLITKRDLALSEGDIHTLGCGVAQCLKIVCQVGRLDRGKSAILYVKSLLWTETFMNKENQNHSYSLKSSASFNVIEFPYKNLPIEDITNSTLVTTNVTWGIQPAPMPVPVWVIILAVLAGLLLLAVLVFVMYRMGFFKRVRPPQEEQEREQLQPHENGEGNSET"},
  "source": "patent US20240336661A1",
  "about": "“PEPTIDES DERIVED FROM RUMINOCOCCUS TORQUES” (University of Copenhagen, priority 2021, published 2024)",
  "binders": {"B1": {"name": "Fc-fused RUCILP2 (Fc fusion, not shown: a dimerising Fc or GST)", "chain": "APVDVKVSEITETSAKASWKNAADGKEAAGYNVYVDGVKLNKELLTEASCGLTNLKAETTYFVEVTAVDAAGNESVKSEKVTFKTLK"}},
  "key": {"[1]": {"molecular_target": "His-tag integrin αV/β5 receptor (UniProt P06756)", "assay": "co-immunoprecipitation on Ni-NTA: 100 nM Fc-fused RUCILP2 with 5 nM His-tag αV/β5 integrin, immunoblot"}, "[2]": {"molecular_target": "His-tag integrin αV/β5 receptor (UniProt P06756)", "assay": "co-immunoprecipitation on Ni-NTA, immunoblot (FIG. 6)"}},
  "note": "These are yes or no findings as the source states them, for the method shown. Binding seen in cells or lysates may run through a third protein. Some entries that bind do so weakly or less than the wild type. Tags and fused reporters may be left off the sequences shown.",
  "data": [
    {"binder": "B1", "values": [
      {"measurement": "binding", "setting": "[1]", "result": "binds"},
      {"measurement": "binding", "setting": "[2]", "result": "binds"}
    ]}
  ]
}
